Measurements taken from patent publication US20060286035A1 (CYTOS BIOTECHNOLOGY, published 2006).
No constants are given. Whether binding was seen depends on the method and setting. Some binding calls cover weakened binding; strength is not graded here. Sequences can lack the tags named with a protein.

How the values were obtained:
T-cadherin [1] = biological target: T1, T-cadherin (mouse, UniProt Q9WTR5 139-693); experiment: FACS expression cloning: BHK cells infected with a C2C12 Sindbis cDNA library, stained with 50 µg/ml Acrp30-FLAG-C; clones identified by RT-PCR and sequencing
T1 construct: whole, on cells; also called adiponectin receptor; pGF-T-cadherin
T1 sequence (looked up): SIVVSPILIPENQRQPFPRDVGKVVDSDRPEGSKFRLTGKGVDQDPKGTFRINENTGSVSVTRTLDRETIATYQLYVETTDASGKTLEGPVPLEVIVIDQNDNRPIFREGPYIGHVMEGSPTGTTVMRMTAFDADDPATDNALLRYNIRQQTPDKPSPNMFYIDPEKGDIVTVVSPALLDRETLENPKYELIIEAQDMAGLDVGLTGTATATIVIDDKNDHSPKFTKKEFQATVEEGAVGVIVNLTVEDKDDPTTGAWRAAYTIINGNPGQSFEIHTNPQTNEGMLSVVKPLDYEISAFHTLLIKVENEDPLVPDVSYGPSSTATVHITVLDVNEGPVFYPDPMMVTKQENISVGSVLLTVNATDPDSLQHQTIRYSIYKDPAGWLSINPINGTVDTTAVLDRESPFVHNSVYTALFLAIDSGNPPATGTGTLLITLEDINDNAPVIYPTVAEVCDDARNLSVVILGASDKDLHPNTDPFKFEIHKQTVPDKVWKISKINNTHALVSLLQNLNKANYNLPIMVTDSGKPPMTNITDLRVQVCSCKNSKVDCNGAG

T-cadherin [2] = biological target: T1, T-cadherin; experiment: flow cytometry on transiently transfected 293-EBNA cells, 50 µg/ml bait, anti-FLAG M2 and Cy5 anti-mouse detection
T-cadherin [3] = biological target: T1, T-cadherin; experiment: flow cytometry titration on 293-EBNA cells transfected with pGF-T-cadherin
T-cadherin [4] = biological target: T1, T-cadherin; experiment: flow cytometry on 293-EBNA cells transfected with pGF-T-cadherin (FIG. 1)

binding (T-cadherin [1]): binds
binding (T-cadherin [2]): binds
binding (T-cadherin [3]): binds
binding (T-cadherin [4]): binds
B1: Acrp30-FLAG-C (ligand)
chain: DADPEDDVTTTEELAPALVPPPKGTCAGWMAGIPGHPGHNGTPGRDGRDGTPGEKGEKGDAGLLGPKGETGDVGVTGAEGPRGFPGTPGRKGEPGEAAYMYRSAFSVGLETRVTVPNVPIRFTKIFYNQQNHYDGSTGKFYCNIPGLYYFSYHITVYMKDVKVSLFKKDKAVLFTYDQYQEKNVDQASGSVLLHLEVGDQVWLQVYGDGDHNGLYADNVNDSTFTGFLLYHDTNSLDDYKDDDDK
notes: The molecular weight used for the Kd is 26546 g/mol (monomer); Three bands on SDS-PAGE from differential glycosylation; also called Adiponectin-bait Acrp30-FLAG-C; adiponectin
